The AC50 is the midpoint of the concentration-response curve, whichever way the signal moves. Low values mean activity at low concentration, high ones activity only at high concentration.

The other results are listed elsewhere or left out. The main result of the screen is listed elsewhere. These columns were measured beside it and carry no call. Compounds called inactive in the main read-out are mostly missing here. The note in brackets gives the kind of curve behind each potency; many fits are weak.

Our source for the cell number change and AC50 values is PubChem BioAssay AID2685 (National Center for Advancing Translational Sciences (NCATS), 2010).

The nature of the experiment: qHTS Assay for Lipid Storage Modulators in Drosophila S3 Cells.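 As to cell number change: cells counted by Cell Tracker Red CMTPX staining in the red channel.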 The following applies: BODIPY lipid droplet fluorescence, 18-24 h; for cell number change: measured here: cell count max response, cells fed with added oleic acid. In outline:
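Drosophila S3 cells got compounds at several concentrations plus oleic acid (400 uM solution). Laser-scanning cytometry with 488 nm excitation read lipid droplets at 500-530 nm and cells at 575-640 nm. Percent activity was relative to 20 uM Triacsin C.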
On the technique in general: Quantitative high-throughput screening tests each substance at several concentrations.

Where [1] appears, read: measured here: lipid fluorescence (Fed channel) AC50, cells fed with added oleic acid.
[2] abbreviates: measured here: cell number channel AC50, cells fed with added oleic acid.

Regarding `Cc1ccc(NC(=O)CN2C(=O)S/C(=C\c3ccc(OCC(=O)O)c(Br)c3)C2=O)cc1`, the cell number change was -18.8%.

Take `CCC(C)OC(=O)C1=C(C)NC(=O)CC1c1ccccc1OC` (stereo not drawn): the cell number change turned out to be 27.9%. In addition, the AC50 under setting [1] is 29.1 µM [rising, single point].

For `CC1([N+](=O)[O-])COC2(OC1)C(=O)Nc1ccccc12` (stereo not drawn), the cell number change was determined as 16.5%. Further, the AC50 under setting [1] was 14.6 µM [rising, partial curve, poor fit].

Regarding `CCCCN(C(=O)CCCc1nc2ccccc2c(=O)[nH]1)c1c(N)n(CC(C)C)c(=O)[nH]c1=O`, the cell number change is -27.5%. In addition, under setting [1], the AC50 was 0.0731 µM [falling, full curve, poor fit].

In the case of `Cc1ccc(C(=O)N=c2sccn2C)cc1C`, the cell number change came to 30.8%. Also, the AC50 under setting [2] is 0.92 µM [rising, full curve, poor fit].

For the compound `N#CC1=C(SCC(=O)c2ccccc2)NC2=C(C(=O)CCC2)C1c1ccco1` (stereo not drawn), the cell number change was -34%. The AC50 under setting [2] was 6.51 µM [falling, full curve, poor fit]. For the same compound, the AC50 under setting [1] is 13 µM [falling, partial curve, poor fit].

Consider `CCCCCCC(=O)Oc1cccc(N2C(=O)C3CCCCC3C2=O)c1` (stereo not drawn), for which the cell number change is -5.47%. Further, the AC50 under setting [2] was 6.51 µM [falling, single point]. The AC50 under setting [1] was 3.66 µM [falling, single point].

Consider `Cc1cc(Oc2ccccc2)nc(-c2ccccc2O)n1`, for which the cell number change was -0.132%. Besides, the AC50 under setting [2] is 0.291 µM [rising, single point].

As to `CCc1nc(N2CCCCC2C)c2oc3ccccc3c2n1` (stereo not drawn), the cell number change is -58.2%. In addition, under setting [2], the AC50 is 29.1 µM [falling, single point]. Besides, under setting [1], the AC50 is 32.6 µM [falling, single point].

`COc1ccc(CCNC(=O)C/C(C)=N/NC(=O)c2ccc(N)cc2)cc1OC`: the cell number change was -61.5%. For the same compound, the concentration at half-maximal activity (AC50) under setting [2] was 2.06 µM [falling, full curve]. The AC50 under setting [1] is 2.31 µM [falling, full curve].

For `CC(C)(C)OC(=O)N1CCC(CNC(=O)c2ccccc2)CC1`, the cell number change was -56.5%. In addition, under setting [2], the AC50 is 5.8 µM [falling, full curve]. The AC50 under setting [1] is 9.2 µM [falling, partial curve].

As for `CC(=O)c1cccc(NC(=O)CCS(=O)(=O)c2ccc(Br)s2)c1`, the cell number change came to 48.2%. Also, under setting [2], the AC50 was 0.326 µM [rising, full curve].

On to `C(=N\Nc1nc(-c2ccccc2)cs1)/c1cccs1`, for which the AC50 runs as follows: under setting [2], 3.66 µM [rising, single point]; under setting [1], 3.26 µM [rising, partial curve].

As for `COc1ccc(OC)c(CN2CCN(Cc3cc(=O)oc4cc(O)ccc34)CC2)c1`, the cell number change was -13.2%. Moreover, the AC50 under setting [1] is 3.55 µM [rising, partial curve].

Take `O=C(CSc1ccccc1)N1CCN(S(=O)(=O)c2ccccc2)CC1`: the cell number change was 58.7%. Further, the half-maximal activity concentration (AC50) under setting [2] was 29.1 µM [rising, single point].

Turning to `O=C(NC1CCS(=O)(=O)C1)Oc1ccc(Cl)cc1` (stereo not drawn), the cell number change is 6.13%. Also, the AC50 under setting [1] was 0.411 µM [rising, single point].

For `CCN(CC(=O)Nc1ccc(OC)cc1)CC(=O)Nc1ccc2c(c1)OCO2`, the cell number change was -12%. Moreover, the concentration at half-maximal activity (AC50) under setting [1] is 0.0206 µM [rising, full curve, poor fit].

For `O=C(CCn1c(=O)sc2ccccc21)Nc1nccs1`, the cell number change was found to be 31.3%. In addition, the AC50 under setting [2] is 29.1 µM [rising, single point]. For the same compound, under setting [1], the AC50 was 1.03 µM [rising, full curve, poor fit].

On to `CC(OC(=O)c1ccc(S(=O)(=O)N2CCOCC2)cc1)c1ccccc1` (stereo not drawn), for which the cell number change amounted to 17.2%. Besides, the AC50 under setting [1] was 29.1 µM [rising, single point].

`CC(C)c1ccc(/C=C/C(=O)NC(=S)NN2CCOCC2)cc1`: the cell number change is -37.4%. In addition, under setting [2], the AC50 is 16.4 µM [falling, single point]. Besides, the AC50 under setting [1] is 29.1 µM [falling, single point].

Turning to `Cc1cc(C)cc(NC(=O)c2ccc(CNc3c(N4CCOCC4)c(=O)c3=O)cc2)c1`, the cell number change is -8.63%. The AC50 under setting [1] is 6.51 µM [rising, partial curve, poor fit].

Regarding `COc1cccc(/C=C/C(=O)OCC(=O)NCCc2ccccc2)c1`, the cell number change is -8.61%.

In the case of `O=C(O)CCn1cc(/C=C/C(=O)c2ccc(Cl)cc2)c(-c2ccc(Br)cc2)n1`, the cell number change was -18.5%. The AC50 under setting [1] is 0.731 µM [falling, full curve, poor fit].

Turning to `CCC(C)CCN1C(Nc2ccccc2)=NC[C@@H]1C` (stereo partly drawn), the cell number change was 17.4%. For the same compound, the AC50 under setting [1] is 29.1 µM [falling, single point].

Turning to `Cc1nn2c(-c3ccccc3)c(-c3ccccc3)nc2[nH]c1=O`, the cell number change is -15.2%. For the same compound, under setting [1], the AC50 was 16.4 µM [rising, partial curve, poor fit].

For `CCc1c(C#N)c(SCc2c(C)noc2C)nc2c1C(=O)CC(C)(C)C2`, the cell number change was -0.459%. Besides, the AC50 under setting [1] was 8.2 µM [rising, partial curve].

Turning to `COc1cccc(/C=N/N2CCN(c3ccncc3S(=O)(=O)N3CCCCC3)CC2)c1`, the cell number change is -56.4%. Besides, the AC50 under setting [2] is 20.6 µM [falling, single point]. The AC50 under setting [1] is 29.1 µM [falling, single point].

As for `COc1cc2c(cc1OC)C(COc1ccc([N+](=O)[O-])cc1)N(C(C)=O)CC2` (stereo not drawn), the cell number change is -1.41%. In addition, the AC50 under setting [1] was 6.51 µM [falling, single point].

For `Cc1ccc2[nH]c3c(c2c1)CN(C(=O)CN1CCN(c2ccccc2)CC1)CC3`, the cell number change was found to be 10.8%. Also, the AC50 under setting [1] is 29.1 µM [rising, single point].

Consider `O=C(CSc1ncccn1)NCc1ccc(F)cc1`, for which the cell number change is -1.08%.

As to `COc1cc(CNn2cn[nH]c2=S)cc(Cl)c1OCc1ccc(F)cc1`, the cell number change is -41.1%. Besides, under setting [2], the AC50 is 18.4 µM [falling, single point]. The AC50 under setting [1] was 20.6 µM [falling, single point].

As to `CC(C)C(=O)Nc1nnc(S(=O)(=O)N(C)c2ccc(Cl)cc2)s1`, the cell number change was -17.7%.

Regarding `O=C(CN1CCN(Cc2ccc3c(c2)OCO3)CC1)NCC(F)(F)F`, the cell number change is 19.8%.

On to `CC(C)CC(=O)N1CCN(S(C)(=O)=O)CC1`, for which the cell number change amounted to 4.77%. Also, the AC50 under setting [1] was 8.2 µM [falling, partial curve].

For `COc1ccc2nc(NC(=O)c3cc(C)oc3C)sc2c1`, the cell number change is -38.1%. Under setting [2], the AC50 was 29.1 µM [falling, single point].

For the compound `N#Cc1c(N)nc2c(c1-c1ccc3c(c1)OCO3)CCc1ccccc1-2`, the cell number change was determined as 5.12%. The AC50 under setting [1] is 14.6 µM [rising, partial curve, poor fit].

With `CCOc1ccc(-c2[nH]nc3c2C(c2cccnc2)C(C#N)=C(N)O3)cc1` (stereo not drawn), the cell number change was determined as 12.6%. For the same compound, the AC50 under setting [1] is 0.00517 µM [rising, full curve, poor fit].
